Results taken from paper PMC10795994.

Chains of the proteins cited; added tags and fusions are not shown. Lines headed by an entry give the natural chain unless they say otherwise; changes in a name come on top.
UniProt Q10135: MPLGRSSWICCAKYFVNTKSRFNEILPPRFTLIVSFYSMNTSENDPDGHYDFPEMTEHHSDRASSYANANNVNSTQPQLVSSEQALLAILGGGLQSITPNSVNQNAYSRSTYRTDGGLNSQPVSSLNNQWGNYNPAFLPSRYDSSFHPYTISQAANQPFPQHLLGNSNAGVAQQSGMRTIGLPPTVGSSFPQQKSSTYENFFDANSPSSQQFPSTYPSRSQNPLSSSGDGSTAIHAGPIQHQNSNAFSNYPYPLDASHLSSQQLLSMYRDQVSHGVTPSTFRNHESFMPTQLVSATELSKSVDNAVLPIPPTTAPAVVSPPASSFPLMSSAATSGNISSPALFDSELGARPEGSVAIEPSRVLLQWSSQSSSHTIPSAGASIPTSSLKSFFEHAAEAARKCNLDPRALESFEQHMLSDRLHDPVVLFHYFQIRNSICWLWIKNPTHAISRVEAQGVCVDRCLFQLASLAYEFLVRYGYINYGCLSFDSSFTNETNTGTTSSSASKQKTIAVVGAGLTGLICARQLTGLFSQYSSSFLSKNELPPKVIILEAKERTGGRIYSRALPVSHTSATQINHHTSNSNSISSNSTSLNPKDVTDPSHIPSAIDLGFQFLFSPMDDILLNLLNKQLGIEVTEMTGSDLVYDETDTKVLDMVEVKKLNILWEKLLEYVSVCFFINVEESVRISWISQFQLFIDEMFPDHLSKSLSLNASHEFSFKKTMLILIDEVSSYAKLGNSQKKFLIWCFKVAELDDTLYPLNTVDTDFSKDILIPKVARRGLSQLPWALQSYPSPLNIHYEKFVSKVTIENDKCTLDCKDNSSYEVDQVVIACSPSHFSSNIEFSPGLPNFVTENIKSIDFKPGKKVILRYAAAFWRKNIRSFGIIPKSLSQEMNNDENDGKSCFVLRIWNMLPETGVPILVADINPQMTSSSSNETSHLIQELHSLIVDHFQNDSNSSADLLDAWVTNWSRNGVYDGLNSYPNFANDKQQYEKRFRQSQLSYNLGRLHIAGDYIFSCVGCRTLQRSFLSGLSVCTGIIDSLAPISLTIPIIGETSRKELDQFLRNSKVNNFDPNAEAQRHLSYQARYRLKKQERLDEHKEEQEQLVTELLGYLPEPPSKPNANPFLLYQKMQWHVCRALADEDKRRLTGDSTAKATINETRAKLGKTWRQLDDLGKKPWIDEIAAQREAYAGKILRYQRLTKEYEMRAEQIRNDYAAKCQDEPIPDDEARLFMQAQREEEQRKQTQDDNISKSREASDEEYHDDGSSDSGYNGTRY

B1: Phf1-myc (protein, UniProt P87233 1-461)
chain: MSQKNFFDEGKSYGVNDYAGFHFENGADSSLPQVSAQGVVRETDSSNFDASPVASGSGISDVGPFGADFHQLQQHVQTPYGGMTMPASSSSGATSVPPEQDPSLSVSFNRLPKSASTKTKNGRIRSSRREDDNRIPFYDLDVAEGAEDDLQEDFHVEGMKTKSGRKIQRPVAYNPNATALKRKSRKVDMVTLCSVCQRGHSPLSNRIVFCDGCNSPYHQLCHHPPIDDATVQDVDAEWFCMKCQYRRAKQPLETGMTAQDLGLSESDKKMYLSSLPTPHLADLILFCEKSYPSLPIYNPRTRELLGEIRHQLLVSSERQQISLQERLHAKQDEAPSDEPAPVPYTASYVANSGTLYDYPTLIRLAIRNTLSPSKDEIFNWLAQNVPLLPTFHDSASEAIRWMVNKGQLVRSGSIYQIATVEEYPHLQPSLLPTFQRNRKVPKLVPVSFPTDDPQNLCATVL
B2: Phf2-myc (protein, UniProt Q09908 1-538)
chain: MPNSSYYDDDGGSFEAASYPFQFDGSRRFPNDLHPTMFEGEESNQNGGSVLIDQAFQDIQNPNVNSNMHLENQFQHFHEPNKESGAFGSYKNDDVAKEIESSKNQETDAKSEQAPFTEDASSSNYAHHRSADSQTKSALPPNVPASSSPLPPMSIAMNIARKRSWPASLAIERDNTADALFSTEDGREEQFNLEGVKTKSGRKVHRPNHFDPLVKLPTRRRGPGRRPVVALAMKCSVCQRLQSPPKNRIVFCDGCNTPFHQLCHEPYISDELLDSPNGEWFCDDCIRRKKQAPLVTGTTARELNLSSEEKKSYLLSLPISQLVDILLFCEQLHPDIPFYSPKTSTIVQELQSKRSAFTATMNEPVTGDQYLSLNNGTESQSKTTKHSTSLPSTEPVEVDKQYMESEKIPTIDEYLQEYSNEDEIVLQVLESFPAAVSFSTITNTIQAKYSNRKIKNSNITRSLNRLVRKNRVLRDARGSSYELNRTFDADRPSVRPDISITGPIPIDWMLYTPHTEDLTENFCTYYMFDETPIVLSSI

Biological target: lsd2-ΔC-FTP (S. pombe) (UniProt Q10135)
Experiment: co-IP; FTP-tagged Lsd1 or Lsd2 precipitated from S. pombe whole cell extract with IgG Sepharose beads, 4-6 hours at 4°C; western blot with PAP, anti-myc or anti-HA

Row | Binder | binding
1 | B1 | binds
2 | B2 | binds

No constants are given. Whether binding was seen depends on the method and setting. In cells and extracts the contact can be indirect. A result given as binding can be weak or reduced; the word gives no strength. Where a sequence is shown, tags or fusion partners need not be part of it.
